The list shows a part of the results. This data set is noisy: repeats of one test often differ as much as different tests do.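 Cells: ReNCell VM human fetal ventral-midbrain neural progenitors, differentiated mitogen-free. Blinded raters compared doublecortin-stained (early neurons) or tyrosine hydroxylase-stained (dopaminergic neurons) images with untreated wells, where 0 means no change. After repeats and both raters were averaged, compounds scoring 2 or above became hits for retesting.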
system: ReNCell VM; assay: dopaminergic neuron differentiation score (TH+ cell fraction vs untreated, manual image score) (score (0 to 3)); higher = more TH+ dopaminergic neuron differentiation; settings: library: Spectrum; 2 uM; 4 weeks; BDNF 10 ng/ml + GDNF 10 ng/ml

Dopaminergic neuron differentiation score, inactive:
CCNC(=O)/C=C/c1cccc(Br)c1 0
CC(=O)O[C@H]1CC[C@@]2(C)[C@H](CC[C@@H]3[C@@H]2CC[C@]2(C)[C@@H]4[C@H](C[C@@H]32)O[C@]2(CC[C@@H](C)CO2)[C@H]4C)C1 0
OC(CCN1CCCCC1)(c1ccccc1)c1ccccc1 0
CN1CCc2cccc3c2[C@H]1Cc1ccc(O)c(O)c1-3 1
COC(=O)N/N=C/c1c[n+]([O-])c2ccccc2[n+]1[O-] 0
CC1COc2c(N3CCN(C)CC3)c(F)cc3c(=O)c(C(=O)O)cn1c23 (stereo not given) 0
Nc1ccc(S(=O)(=O)Nc2ccccn2)cc1 1
CCCCS(=N)(=O)CCC(N)C(=O)O (stereo not given) 0
NC12CC3CC(CC(C3)C1)C2 0
CC(C)NC[C@@H](O)COc1cccc2ccccc12 0
CC(=O)OCC1=C(C(=O)O)N2C(=O)[C@@H](NC(=O)CSc3ccncc3)[C@H]2SC1 0

same assay, conditions: library: Tocriscreen; 2 uM; 4 weeks; BDNF 10 ng/ml + GDNF 10 ng/ml

Dopaminergic neuron differentiation score, inactive:
CCOc1cc(C(=O)Nc2ccc(Cl)c(-c3nc4ccccc4[nH]3)c2)cc(OCC)c1OCC 0
CCc1cc(-c2n[nH]c(C)c2-c2ccc3c(c2)OCCO3)c(O)cc1O 0
CCOc1ccc(Nc2nc(-c3c(C)nc4ccccn34)cs2)cc1 0
COc1ccc(NS(=O)(=O)c2ccc(I)cc2)cc1N1CCN(C)CC1 0

From the supplement of paper PMC4635364
